Assay results published in US20170056520A1.
These are yes or no findings as the source states them, for the method shown. Some results given as binding are weak or reduced against the parent protein; the word gives no strength.

B1: scFv of mAb specific for human HLA-A1 (from monoclonal antibody 4-35-7) (scFv)
scFv: DIQMTQSPSTLSASVGDRVTITCRASQSISNWLAWYQQKPGKAPNLLIYKASSLESGVPSRFSGSGSGTEFTLTISSLQPDDFATYYCQQYHDYSVTFGAGTKVEIKRGGGGSGGGGSGGGGSEVQLLESGGGLVQPGGSQRLSCVASGVPFSNYAMNWVRQAPGKGLEWVSSISGGGDRTFYADSVKGRFTISRDNSKNTLYLQMNSLGAGDTAVYYCAKTYYDFWSGYSRHLNSWGQGSLVTVSSGGGGSGGGGSC
B2: tetrazine-conjugated scFv specific for human HLA-A1 (scFv)
scFv: B1 scFv
modifications: C-terminal cysteine conjugated with Mal-PEG4-tetrazine

Target: recombinant human HLA-A1-IgG1.Fc fusion protein (human)
Experiment: ELISA

| Binder | binding |
| --- | --- |
| B1 | binds |
| B2 | binds |
